Measurements from the supplement of paper PMC12823440, “Inhibitors supercharge kinase turnover through native proteolytic circuits” (Nature, 2025).
This is one part of the list. Hit calls seldom repeat between salt and free forms of one compound.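 In K562 cells expressing nanoluciferase-fused kinases, luminescence was recorded at 4 h intervals between 2 and 18 h, normalized as percent of control with DMSO at 100% and a positive control at 0%. A significant (2 sigma) signal drop marks a time point as decreased. The authors' rule for a hit is not shown and takes in more than the number of time points.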

The compounds below were run against MAP2K1 (UniProt Q02750) (assay: number of time points (of 5) at which kinase-Nluc abundance scored as decreased, DMSO-normalised (count); higher = more persistent destabilization). Settings: K562; 2-18 h.
`COc1cccc(OC)c1C(=O)OCc1cc(O)ccc1O[C@@H]1O[C@H](CO)[C@@H](O)[C@H](O)[C@H]1O` [Curculigoside] (10 µM) was tested, and the “number of time points” value was 0.
`Nc1ncnc2c1c(-c1ccc(Oc3ccccc3)cc1)nn2C1CCCC1` (2.5 µM) was tested, and the “number of time points” value was 0.
With `CC#CC(=O)N1CC[C@@H](n2c(=O)n(-c3ccc(Oc4ccccc4)cc3)c3c(N)ncnc32)C1` [Tirabrutinib] (10 µM) the “number of time points” value was 0.

Each compound was assayed against MAP2K2 (UniProt P36507) in the same assay as above. Settings: K562; 2-18 h.
For `CCc1c(C(=O)NNC(=O)C(O)c2cc(F)cc(F)c2)ccc(O)c1C` (centres undefined) (10 µM), the “number of time points” value was 0.
For `COc1cc2ncnc(Nc3ccc(Cl)cc3F)c2cc1OC` (10 µM), the “number of time points” value was 0.
For `COc1cc(/C=C/C(=O)NCC(O)c2ccc(O)cc2)ccc1O` (centres undefined) [N-Feruloyloctopamine] (2.5 µM), the “number of time points” value was 0.
With `NC(=O)c1nc(Nc2ccccc2)sc1NC(=O)C1CCCCC1` (10 µM) the “number of time points” value was 0.
In the case of `O=c1cc(CN2CCOCC2)occ1OCCCCCSc1ccnc2cc(C(F)(F)F)ccc12` (10 µM), the “number of time points” value is reported as 0.
`O=C(O)CCC(=O)Nc1ccc(Br)cn1` [Bikinin] (10 µM) was tested, and the “number of time points” value was 0.
`CC[C@@H](Oc1nc(Oc2cc(C)cc(-c3cccc(CN)c3)c2)c(F)cc1F)C(=O)O` (10 µM) was tested, and the “number of time points” value was 0.
`C[C@]1(O)CCN(c2nc(N3C[C@H](O)[C@@H](O)C3)cc(C(F)(F)F)c2C#N)C1` (10 µM) was tested, and the “number of time points” value was 0.
`COc1ccccc1-c1cc(Nc2cccc(CS(N)(=O)=O)c2)ncn1` (10 µM) was tested, and the “number of time points” value was 0.
For `CC(=O)c1c(C)cc2cccc(O)c2c1O` [Nepodin] (10 µM), the “number of time points” value was 0.
With `NC(=O)c1ccc2[nH]ccc2c1` (10 µM) the “number of time points” value was 0.
